From the supplement of paper PMC12067093, “Discovery and optimisation of a covalent ligand for TRIM25 and its application to targeted protein ubiquitination” (Chemical Science, 2025)
Some of the results follow.

Amino acid sequences for entries named in this document (tags omitted). A change or cut given only in a name is not applied to a line headed by its entry.
UniProt P55072, whole entry, looked up: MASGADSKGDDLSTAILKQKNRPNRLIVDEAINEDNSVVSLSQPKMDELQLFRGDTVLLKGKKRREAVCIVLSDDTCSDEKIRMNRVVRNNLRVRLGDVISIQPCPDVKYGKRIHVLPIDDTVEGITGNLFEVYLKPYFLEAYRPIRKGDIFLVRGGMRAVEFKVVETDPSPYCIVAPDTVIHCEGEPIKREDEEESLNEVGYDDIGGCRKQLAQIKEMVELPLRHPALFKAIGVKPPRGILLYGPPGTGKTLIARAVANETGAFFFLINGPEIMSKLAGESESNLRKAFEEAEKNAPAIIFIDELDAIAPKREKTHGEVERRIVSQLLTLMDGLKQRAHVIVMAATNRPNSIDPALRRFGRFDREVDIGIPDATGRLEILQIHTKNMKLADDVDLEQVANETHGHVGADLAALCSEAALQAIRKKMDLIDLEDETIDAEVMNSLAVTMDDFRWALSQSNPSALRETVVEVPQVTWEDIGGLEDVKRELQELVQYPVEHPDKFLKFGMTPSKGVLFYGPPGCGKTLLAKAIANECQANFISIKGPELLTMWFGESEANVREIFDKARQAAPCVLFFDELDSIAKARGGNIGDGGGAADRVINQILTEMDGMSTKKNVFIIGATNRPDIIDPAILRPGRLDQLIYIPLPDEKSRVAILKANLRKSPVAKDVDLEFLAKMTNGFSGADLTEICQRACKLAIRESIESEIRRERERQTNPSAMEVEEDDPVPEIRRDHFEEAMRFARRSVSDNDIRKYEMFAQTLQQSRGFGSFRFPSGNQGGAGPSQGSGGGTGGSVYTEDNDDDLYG
UniProt P26640: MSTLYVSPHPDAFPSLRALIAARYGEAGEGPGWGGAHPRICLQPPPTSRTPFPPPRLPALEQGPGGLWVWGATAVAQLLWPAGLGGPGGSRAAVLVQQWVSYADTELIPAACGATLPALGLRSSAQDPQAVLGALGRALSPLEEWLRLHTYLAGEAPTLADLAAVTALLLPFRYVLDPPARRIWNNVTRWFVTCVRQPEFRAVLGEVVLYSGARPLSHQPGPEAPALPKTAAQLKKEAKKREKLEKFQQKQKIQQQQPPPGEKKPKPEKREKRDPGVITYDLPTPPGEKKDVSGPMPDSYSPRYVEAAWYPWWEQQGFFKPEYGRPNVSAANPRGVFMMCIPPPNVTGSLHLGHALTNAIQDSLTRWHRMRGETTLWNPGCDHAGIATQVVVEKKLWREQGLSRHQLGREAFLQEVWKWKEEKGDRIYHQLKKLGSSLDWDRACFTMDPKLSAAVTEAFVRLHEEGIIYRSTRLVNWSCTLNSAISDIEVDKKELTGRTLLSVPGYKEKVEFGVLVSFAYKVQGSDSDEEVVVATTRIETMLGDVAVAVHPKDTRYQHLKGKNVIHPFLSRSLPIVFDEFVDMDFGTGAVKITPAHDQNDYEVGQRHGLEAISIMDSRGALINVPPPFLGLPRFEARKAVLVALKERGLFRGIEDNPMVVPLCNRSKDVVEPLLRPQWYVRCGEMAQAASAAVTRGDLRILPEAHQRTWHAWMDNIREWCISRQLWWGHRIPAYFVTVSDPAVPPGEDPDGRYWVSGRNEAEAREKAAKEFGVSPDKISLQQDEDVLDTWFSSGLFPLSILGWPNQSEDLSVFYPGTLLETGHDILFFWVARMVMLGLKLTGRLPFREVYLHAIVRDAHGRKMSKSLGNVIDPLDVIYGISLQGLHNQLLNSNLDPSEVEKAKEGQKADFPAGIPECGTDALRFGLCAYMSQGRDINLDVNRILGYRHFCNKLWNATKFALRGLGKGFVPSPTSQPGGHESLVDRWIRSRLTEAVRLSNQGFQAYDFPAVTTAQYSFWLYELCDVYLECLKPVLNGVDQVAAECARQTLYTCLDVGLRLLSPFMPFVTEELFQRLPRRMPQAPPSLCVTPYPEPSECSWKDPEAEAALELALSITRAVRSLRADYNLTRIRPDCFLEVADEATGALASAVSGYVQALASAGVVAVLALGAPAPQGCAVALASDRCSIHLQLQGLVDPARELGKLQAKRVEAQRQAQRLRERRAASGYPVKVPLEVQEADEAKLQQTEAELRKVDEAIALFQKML
UniProt Q9NP79: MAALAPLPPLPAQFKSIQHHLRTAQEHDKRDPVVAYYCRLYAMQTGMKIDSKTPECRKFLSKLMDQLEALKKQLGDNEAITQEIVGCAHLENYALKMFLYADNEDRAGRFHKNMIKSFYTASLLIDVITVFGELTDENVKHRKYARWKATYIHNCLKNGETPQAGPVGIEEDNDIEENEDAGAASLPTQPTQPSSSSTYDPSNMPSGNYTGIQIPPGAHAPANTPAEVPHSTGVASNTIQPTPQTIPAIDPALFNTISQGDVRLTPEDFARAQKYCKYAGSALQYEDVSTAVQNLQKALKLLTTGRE
UniProt Q96JH7: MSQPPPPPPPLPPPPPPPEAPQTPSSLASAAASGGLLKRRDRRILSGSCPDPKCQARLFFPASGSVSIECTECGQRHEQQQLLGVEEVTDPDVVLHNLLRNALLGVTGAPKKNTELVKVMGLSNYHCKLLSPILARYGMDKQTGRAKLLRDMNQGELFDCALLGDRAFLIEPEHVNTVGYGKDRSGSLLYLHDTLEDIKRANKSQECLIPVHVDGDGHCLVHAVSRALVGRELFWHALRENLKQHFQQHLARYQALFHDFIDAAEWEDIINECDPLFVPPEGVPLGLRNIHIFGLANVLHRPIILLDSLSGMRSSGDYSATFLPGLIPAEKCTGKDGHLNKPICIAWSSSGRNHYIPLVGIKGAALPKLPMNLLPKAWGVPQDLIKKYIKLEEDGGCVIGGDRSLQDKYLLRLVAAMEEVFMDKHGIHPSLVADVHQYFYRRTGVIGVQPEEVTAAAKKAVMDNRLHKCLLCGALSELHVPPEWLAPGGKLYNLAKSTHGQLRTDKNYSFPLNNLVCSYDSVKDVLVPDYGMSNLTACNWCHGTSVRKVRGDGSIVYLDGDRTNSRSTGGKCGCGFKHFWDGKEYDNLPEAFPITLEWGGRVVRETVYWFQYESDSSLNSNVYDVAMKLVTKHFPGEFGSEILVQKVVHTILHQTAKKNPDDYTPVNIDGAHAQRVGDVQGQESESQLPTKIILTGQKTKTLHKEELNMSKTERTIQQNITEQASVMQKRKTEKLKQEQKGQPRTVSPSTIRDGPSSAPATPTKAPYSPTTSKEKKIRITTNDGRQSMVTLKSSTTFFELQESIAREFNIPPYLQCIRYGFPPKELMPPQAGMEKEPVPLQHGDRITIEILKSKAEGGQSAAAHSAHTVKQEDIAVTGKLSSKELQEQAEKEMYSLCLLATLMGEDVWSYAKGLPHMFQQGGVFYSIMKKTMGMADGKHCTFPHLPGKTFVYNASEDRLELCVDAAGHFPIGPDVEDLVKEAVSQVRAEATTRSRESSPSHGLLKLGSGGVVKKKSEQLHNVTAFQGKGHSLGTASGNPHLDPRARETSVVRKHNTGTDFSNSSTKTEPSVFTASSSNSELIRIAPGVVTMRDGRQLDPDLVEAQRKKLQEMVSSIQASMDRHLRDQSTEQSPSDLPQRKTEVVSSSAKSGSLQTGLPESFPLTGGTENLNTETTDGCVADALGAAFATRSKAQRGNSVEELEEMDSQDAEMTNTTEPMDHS
UniProt P50552: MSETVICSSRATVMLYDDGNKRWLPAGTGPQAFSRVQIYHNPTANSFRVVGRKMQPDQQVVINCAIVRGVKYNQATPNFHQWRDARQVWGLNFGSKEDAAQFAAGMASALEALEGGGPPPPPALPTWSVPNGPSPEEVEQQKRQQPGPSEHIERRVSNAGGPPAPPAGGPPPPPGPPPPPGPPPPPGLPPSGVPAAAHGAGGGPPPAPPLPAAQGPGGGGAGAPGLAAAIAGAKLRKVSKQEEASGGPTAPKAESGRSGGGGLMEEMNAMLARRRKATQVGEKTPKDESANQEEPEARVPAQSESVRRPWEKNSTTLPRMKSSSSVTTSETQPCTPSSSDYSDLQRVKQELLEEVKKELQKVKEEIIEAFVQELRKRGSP
UniProt O00507: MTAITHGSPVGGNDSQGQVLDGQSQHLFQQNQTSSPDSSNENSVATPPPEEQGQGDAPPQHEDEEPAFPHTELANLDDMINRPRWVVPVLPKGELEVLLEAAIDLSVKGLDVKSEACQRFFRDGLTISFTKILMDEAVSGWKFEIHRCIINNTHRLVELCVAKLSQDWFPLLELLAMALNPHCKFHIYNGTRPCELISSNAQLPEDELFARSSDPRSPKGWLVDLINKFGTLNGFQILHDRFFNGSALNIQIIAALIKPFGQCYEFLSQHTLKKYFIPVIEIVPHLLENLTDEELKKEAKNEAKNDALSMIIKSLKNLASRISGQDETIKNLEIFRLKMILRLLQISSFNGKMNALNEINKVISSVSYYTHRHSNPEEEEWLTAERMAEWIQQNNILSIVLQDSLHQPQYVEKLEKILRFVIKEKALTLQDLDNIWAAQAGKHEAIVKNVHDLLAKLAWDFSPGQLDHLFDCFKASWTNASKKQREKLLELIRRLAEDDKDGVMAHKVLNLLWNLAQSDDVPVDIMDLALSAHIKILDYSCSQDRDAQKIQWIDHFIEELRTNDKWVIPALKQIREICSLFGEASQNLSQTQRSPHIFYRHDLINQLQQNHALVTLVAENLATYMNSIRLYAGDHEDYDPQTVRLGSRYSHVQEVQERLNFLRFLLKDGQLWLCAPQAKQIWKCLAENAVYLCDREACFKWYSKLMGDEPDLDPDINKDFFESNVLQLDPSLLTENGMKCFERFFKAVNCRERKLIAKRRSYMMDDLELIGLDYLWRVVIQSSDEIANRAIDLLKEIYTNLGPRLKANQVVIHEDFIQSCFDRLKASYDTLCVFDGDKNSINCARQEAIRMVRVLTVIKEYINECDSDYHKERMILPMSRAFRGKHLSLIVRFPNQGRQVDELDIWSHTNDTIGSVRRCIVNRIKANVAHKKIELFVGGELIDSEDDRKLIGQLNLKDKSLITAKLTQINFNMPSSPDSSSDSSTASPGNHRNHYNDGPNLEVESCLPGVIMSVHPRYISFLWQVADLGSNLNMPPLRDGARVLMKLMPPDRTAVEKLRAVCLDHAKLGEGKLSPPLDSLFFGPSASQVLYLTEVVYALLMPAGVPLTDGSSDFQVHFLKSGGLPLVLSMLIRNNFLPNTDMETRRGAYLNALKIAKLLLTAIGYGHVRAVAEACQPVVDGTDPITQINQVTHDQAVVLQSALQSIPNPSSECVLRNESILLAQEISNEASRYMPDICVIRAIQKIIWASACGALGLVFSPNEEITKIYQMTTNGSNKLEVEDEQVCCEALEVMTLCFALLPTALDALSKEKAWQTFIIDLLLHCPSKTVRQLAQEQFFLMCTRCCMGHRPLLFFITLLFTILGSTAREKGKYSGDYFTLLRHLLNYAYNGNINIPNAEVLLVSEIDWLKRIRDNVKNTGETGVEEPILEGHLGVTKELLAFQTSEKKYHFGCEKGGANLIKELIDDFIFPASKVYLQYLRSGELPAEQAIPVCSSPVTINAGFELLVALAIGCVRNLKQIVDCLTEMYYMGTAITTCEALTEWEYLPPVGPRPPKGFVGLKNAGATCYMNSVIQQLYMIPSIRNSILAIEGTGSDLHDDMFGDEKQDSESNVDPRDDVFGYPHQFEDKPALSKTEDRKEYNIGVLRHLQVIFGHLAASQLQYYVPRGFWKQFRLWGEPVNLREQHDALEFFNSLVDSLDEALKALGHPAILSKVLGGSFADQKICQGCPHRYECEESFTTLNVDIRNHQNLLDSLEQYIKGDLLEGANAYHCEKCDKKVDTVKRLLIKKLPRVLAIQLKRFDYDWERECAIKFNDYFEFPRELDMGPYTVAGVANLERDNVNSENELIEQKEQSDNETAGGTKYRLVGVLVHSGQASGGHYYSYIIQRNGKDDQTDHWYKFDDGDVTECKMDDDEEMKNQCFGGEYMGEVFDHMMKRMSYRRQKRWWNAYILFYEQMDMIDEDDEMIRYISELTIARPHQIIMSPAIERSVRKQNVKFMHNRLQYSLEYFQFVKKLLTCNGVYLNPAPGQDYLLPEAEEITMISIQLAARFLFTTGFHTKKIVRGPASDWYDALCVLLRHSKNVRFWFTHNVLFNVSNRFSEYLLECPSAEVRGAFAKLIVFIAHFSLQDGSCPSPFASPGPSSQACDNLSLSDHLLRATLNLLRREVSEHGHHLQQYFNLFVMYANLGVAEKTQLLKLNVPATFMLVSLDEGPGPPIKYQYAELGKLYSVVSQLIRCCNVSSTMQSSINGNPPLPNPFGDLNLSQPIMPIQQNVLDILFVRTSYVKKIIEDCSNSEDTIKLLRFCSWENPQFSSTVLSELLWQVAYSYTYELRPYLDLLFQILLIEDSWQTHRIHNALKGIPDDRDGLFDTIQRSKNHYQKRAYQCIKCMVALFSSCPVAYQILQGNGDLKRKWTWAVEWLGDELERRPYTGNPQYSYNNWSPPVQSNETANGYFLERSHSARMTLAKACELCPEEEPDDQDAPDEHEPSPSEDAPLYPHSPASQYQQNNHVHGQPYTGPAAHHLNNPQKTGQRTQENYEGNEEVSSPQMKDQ

Compound: Cc1cc(ccc1-c1ccccc1)C(=O)N1CCCN(CC1)C(=O)CCl [compound 10]
Assay: probe-labelled cysteine peptide fold change vs DMSO (competition) (log2 fold change); higher = less target engagement (more negative = stronger competition)
Details: THP-1, incubation time: 4 h
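Note: competitive profiling in live THP-1 cells: cysteine peptides tagged with an iodoacetamide desthiobiotin (IA-DTB) probe, intensity after compound treatment relative to DMSO-treated cells.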

Row | Target | probe-labelled cysteine peptide fold change (10 µM) | probe-labelled cysteine peptide fold change (50 µM)
1 | VPS52_Q8N1B4_119_DYIQESENIASLHNQITACDAVLER (UniProt Q8N1B4) | 0.338 | 0.121
2 | VCP_P55072_69_REAVCIVLSDDTCSDEK (UniProt P55072) | 0.233 | -0.188
3 | VPS13C_Q709C8_1372_ILTENLCEGTEDLDK (UniProt Q709C8) | 0.0329 | -0.0418
4 | WAPL_Q7Z5K2_964_TGEQDGLIGTALNCVLQVPK (UniProt Q7Z5K2) | 0.366 | 0.213
5 | VARS_P26640_1185_CSIHLQLQGLVDPARELGK (UniProt P26640) | 0.0564 | -0.00379
6 | VPS13C_Q709C8_3723_ACNAIEDAQSTR (UniProt Q709C8) | -0.217 | 0.0523
7 | UTP20_O75691_2594_IKEDLEEQEALEDGVACADEK (UniProt O75691) | -0.135 | 0.256
8 | VTA1_Q9NP79_155_ATYIHNCLK (UniProt Q9NP79) | 0.059 | 0.0628
9 | VCPIP1_Q96JH7_219_SQECLIPVHVDGDGHCLVHAVSR (UniProt Q96JH7) | -2.4 | < -5
10 | VASP_P50552_334_SSSSVTTSETQPCTPSSSDYSDLQR (UniProt P50552) | -0.114 | -0.417
11 | VAT1_Q99536_324_AVCGFHLGYLDGEVELVSGVVAR (UniProt Q99536) | 0.0974 | 0.151
12 | UTP15_Q8TED0_85_DTAYCATFR (UniProt Q8TED0) | 0.123 | 0.121
13 | VTA1_Q9NP79_87_QLGDNEAITQEIVGCAHLENYALK (UniProt Q9NP79) | 0.0147 | 0.136
14 | VAV1_P15498_369_DLAQCVNEVK (UniProt P15498) | 0.353 | 0.294
15 | USP9Y_O00507_1568_NAGATCYMNSVIQQLYMIPSIR (UniProt O00507) | 0.116 | 0.0781
16 | VRK3_Q8IV63_288_SVLQVACR (UniProt Q8IV63) | 0.143 | 0.0779
17 | VPS36_Q86VN1_271_GGIMSLTEVYCLVNR (UniProt Q86VN1) | 0.111 | 0.204
18 | UVRAG_Q9P2Y5_204_AQCAIK (UniProt Q9P2Y5) | -0.0873 | -0.0836
19 | VARS_P26640_927_FGLCAYMSQGR (UniProt P26640) | -0.147 | -0.243
20 | VPS8_Q8N3P4_974_AMDHIEELVSLKPCK (UniProt Q8N3P4) | 0.0546 | -0.497
21 | USP9Y_O00507_1735_ICQGCPHRYECEESFTTLNVDIR (UniProt O00507) | 0.126 | -0.0682

Row | Target | probe-labelled cysteine peptide fold change (10 µM) | probe-labelled cysteine peptide fold change (50 µM)
22 | USP9Y_O00507_1910_FDDGDVTECK (UniProt O00507) | -0.232 | 0.0297
23 | VPS18_Q9P253_421_ERPDCLDTVLAR (UniProt Q9P253) | -0.184 | -0.179
24 | VAV2_P52735_749_KFDSLLELVEYYQCHSLK (UniProt P52735) | 0.0227 | -0.0963
25 | VPS16_Q9H269_36_KYELYSMDWDLKEELRDCLVAAAPYGGPIALLR (UniProt Q9H269) | 0.0814 | -0.216
26 | VPS53_Q5VIR6-4_685_CKPISMVGAEQLLLDTHSLK (UniProt Q5VIR6) | -0.152 | 0.177
27 | VPS16_Q9H269_763_SPIGYLPFVEICMK (UniProt Q9H269) | 0.149 | 0.152
28 | VCP_P55072_184_VVETDPSPYCIVAPDTVIHCEGEPIKR (UniProt P55072) | -0.336 | 0.387
29 | VAPA_Q9P0L0_179_KLMEECK (UniProt Q9P0L0) | -0.0535 | -0.275
30 | VCPIP1_Q96JH7_127_VMGLSNYHCK (UniProt Q96JH7) | -0.166 | -0.653
31 | VPS52_Q8N1B4_119_SIRDYIQESENIASLHNQITACDAVLER (UniProt Q8N1B4) | 0.0101 | -0.415
32 | VPS29_Q9UBQ0_36_IQHILCTGNLCTK (UniProt Q9UBQ0) | -0.127 | -0.307
33 | VARS_P26640_682_CGEMAQAASAAVTR (UniProt P26640) | -0.0336 | -0.0251
34 | UTRN_P46939_447_METCPLDDDVK (UniProt P46939) | -0.0867 | -0.345
35 | VPS13B_Q7Z7G8_868_CASGTMGSIK (UniProt Q7Z7G8) | -0.0934 | -0.0648
36 | VARS_P26640_479_LVNWSCTLNSAISDIEVDK (UniProt P26640) | 0.0795 | 0.514
37 | VRK1_Q99986_220_CHDGTIEFTSIDAHNGVAPSRR (UniProt Q99986) | -0.238 | -0.155
38 | VPS72_Q15906_163_GPHCERPLTQEELLR (UniProt Q15906) | 0.133 | -0.138
39 | VKORC1L1_Q8N0U8_50_ALCDLGPWVK (UniProt Q8N0U8) | -0.156 | -0.0504
40 | VPS16_Q9H269_271_QMVWCSRPR (UniProt Q9H269) | 0.108 | -0.255
41 | VLDLR_P98155_33_CEPSQFQCTNGR (UniProt P98155) | -0.258 | -0.679
42 | VASP_P50552_64_KMQPDQQVVINCAIVR (UniProt P50552) | 0.0548 | -0.316
